# Test results as given in publication PMC12145441.
# By UniProt entry, the sequences of proteins in these tests, tags left out.
# UniProt O43791: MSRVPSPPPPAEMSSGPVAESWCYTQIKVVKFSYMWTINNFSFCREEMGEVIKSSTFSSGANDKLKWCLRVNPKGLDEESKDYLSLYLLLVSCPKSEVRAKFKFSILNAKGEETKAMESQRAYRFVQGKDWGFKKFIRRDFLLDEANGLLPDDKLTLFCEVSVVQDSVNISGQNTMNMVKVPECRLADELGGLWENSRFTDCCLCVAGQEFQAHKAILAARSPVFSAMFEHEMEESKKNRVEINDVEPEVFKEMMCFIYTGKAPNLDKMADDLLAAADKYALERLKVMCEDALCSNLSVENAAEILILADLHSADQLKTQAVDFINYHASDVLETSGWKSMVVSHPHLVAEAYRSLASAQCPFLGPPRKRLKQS
# No constants are given. Whether binding was seen depends on the method and setting. In cells and extracts the contact can be indirect. These calls come from enrichment with a bait or labelling near it, and not all partners need be listed.
# Biological target: T1, LMNB2, bait of the tandem affinity purification (TAP-MS) (UniProt Q03252)
# T1 sequence: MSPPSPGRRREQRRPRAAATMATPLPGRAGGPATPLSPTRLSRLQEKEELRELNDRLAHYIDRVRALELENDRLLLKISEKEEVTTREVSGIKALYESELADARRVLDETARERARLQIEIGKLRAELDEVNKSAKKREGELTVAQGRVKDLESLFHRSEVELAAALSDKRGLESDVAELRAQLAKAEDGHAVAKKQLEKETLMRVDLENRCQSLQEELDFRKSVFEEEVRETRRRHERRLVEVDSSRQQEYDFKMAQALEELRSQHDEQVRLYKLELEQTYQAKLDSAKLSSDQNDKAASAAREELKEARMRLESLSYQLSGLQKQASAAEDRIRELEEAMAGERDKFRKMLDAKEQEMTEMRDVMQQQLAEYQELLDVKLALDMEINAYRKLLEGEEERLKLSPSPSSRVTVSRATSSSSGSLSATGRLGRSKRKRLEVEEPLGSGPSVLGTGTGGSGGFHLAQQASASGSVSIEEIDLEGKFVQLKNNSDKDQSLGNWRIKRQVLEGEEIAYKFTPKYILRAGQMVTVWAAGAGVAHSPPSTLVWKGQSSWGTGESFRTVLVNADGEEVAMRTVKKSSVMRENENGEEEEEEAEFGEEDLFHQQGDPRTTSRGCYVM
# Experiment: affinity purification with mass spectrometry; tandem affinity purification of LMNB2 coupled with mass spectrometry (TAP-MS); cells and tags not stated
substance,measurement,value
"SPOP (speckle-type POZ protein), endogenous (from UniProt O43791 1-374)",binding,binds
